Measurements reported in PubChem BioAssay AID743454 (Peter MacCallum Cancer Centre, 2014)
The deposit covers about 18,000 reagents; this is a random part of them. In the full data, 450 (2.5%) are marked active. 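Single biological run; no consistent viability z cut-off exists, so the class columns, not z-scores, define the calls.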

Assay: 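Search for knock-downs that restore vorinostat killing in resistant colon cancer cells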 (primary screen)
Cells: human HCT116-VR colon cancer cells, selected for vorinostat resistance
Knock-down reagent: siRNA pool against human genes, 40 nM siRNA pool
Time to read-out: vorinostat for 24 h, read-out about 72 h after transfection
Treatment: vorinostat at 2.5 µM final
Detection: 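Cell viability by CellTiter-Fluor and caspase 3/7 activity by luminescence, each scaled to mock wells per plate, duplicates averaged, then robust z-scored over all plates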
Reading the numbers: viability robust z-score: higher = more viable cells than screen typical; caspase robust z-score: higher = more caspase 3/7 activity than screen typical
Hit rule: 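Hits are knock-downs in viability class RV1/RV2 or caspase class CA1/CA2, excluding ones that killed cells in the no-drug cell-count arm; hits then retested with single siRNAs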

{"gene": "CKLF (chemokine like factor)", "viability hit class": "no change", "caspase hit class": "no change", "viability robust z-score": -0.44, "caspase robust z-score": 0.4, "Outcome": "inactive"}
{"gene": "MAGEA2 (MAGE family member A2)", "viability hit class": "no change", "caspase hit class": "no change", "viability robust z-score": -2.63, "caspase robust z-score": 0.34, "Outcome": "inactive"}
{"gene": "CTSH (cathepsin H)", "viability hit class": "no change", "caspase hit class": "no change", "viability robust z-score": -0.51, "caspase robust z-score": 1.8, "Outcome": "inactive"}
{"gene": "RICTOR (RPTOR independent companion of MTOR complex 2)", "viability hit class": "no change", "caspase hit class": "no change", "viability robust z-score": 0.92, "caspase robust z-score": -0.92, "Outcome": "inactive"}
{"gene": "SLC39A8", "viability hit class": "no change", "caspase hit class": "no change", "viability robust z-score": 0.24, "caspase robust z-score": -0.3, "Outcome": "inactive"}
{"gene": "RAVER2 (ribonucleoprotein, PTB binding 2)", "viability hit class": "no change", "caspase hit class": "no change", "viability robust z-score": 0.44, "caspase robust z-score": -0.24, "Outcome": "inactive"}
{"gene": "CTAGE1 (cutaneous T cell lymphoma-associated antigen 1)", "viability hit class": "no change", "caspase hit class": "no change", "viability robust z-score": 0.38, "caspase robust z-score": -0.14, "Outcome": "inactive"}
{"gene": "KRTAP5-5 (keratin associated protein 5-5)", "viability hit class": "no change", "caspase hit class": "no change", "viability robust z-score": 0.22, "caspase robust z-score": 0.19, "Outcome": "inactive"}
{"gene": "DUSP22 (dual specificity phosphatase 22)", "viability hit class": "no change", "caspase hit class": "no change", "viability robust z-score": 0.96, "caspase robust z-score": 0.43, "Outcome": "inactive"}
{"gene": "SLC12A9", "viability hit class": "no change", "caspase hit class": "no change", "viability robust z-score": -0.72, "caspase robust z-score": 2.51, "Outcome": "inactive"}
{"gene": "SNAPC1 (small nuclear RNA activating complex polypeptide 1)", "viability hit class": "no change", "caspase hit class": "no change", "viability robust z-score": -1.26, "caspase robust z-score": -0.42, "Outcome": "inactive"}
{"gene": "SIAH3 (siah E3 ubiquitin protein ligase family member 3)", "viability hit class": "no change", "caspase hit class": "no change", "viability robust z-score": -0.65, "caspase robust z-score": -0.76, "Outcome": "inactive"}
{"gene": "LZIC (leucine zipper and CTNNBIP1 domain containing)", "viability hit class": "no change", "caspase hit class": "no change", "viability robust z-score": 0.57, "caspase robust z-score": -0.83, "Outcome": "inactive"}
{"gene": "ARL13A (ARF like GTPase 13A)", "viability hit class": "no change", "caspase hit class": "no change", "viability robust z-score": 1.08, "caspase robust z-score": -1.09, "Outcome": "inactive"}
{"gene": "PDCD4 (programmed cell death 4)", "viability hit class": "no change", "caspase hit class": "no change", "viability robust z-score": -1.48, "caspase robust z-score": 0.76, "Outcome": "inactive"}
{"gene": "SPART (spartin)", "viability hit class": "no change", "caspase hit class": "no change", "viability robust z-score": 0.88, "caspase robust z-score": -0.71, "Outcome": "inactive"}
{"gene": "OR2S2 (olfactory receptor family 2 subfamily S member 2)", "viability hit class": "no change", "caspase hit class": "no change", "viability robust z-score": -1.04, "caspase robust z-score": 0.82, "Outcome": "inactive"}
{"gene": "DNAAF4 (dynein axonemal assembly factor 4)", "viability hit class": "no change", "caspase hit class": "no change", "viability robust z-score": -1.3, "caspase robust z-score": 3.17, "Outcome": "inactive"}
{"gene": "MTCP1 (mature T cell proliferation 1)", "viability hit class": "no change", "caspase hit class": "no change", "viability robust z-score": 0.66, "caspase robust z-score": -0.83, "Outcome": "inactive"}
{"gene": "SAPCD1 (suppressor APC domain containing 1)", "viability hit class": "no change", "caspase hit class": "no change", "viability robust z-score": -1.16, "caspase robust z-score": 2.71, "Outcome": "inactive"}
{"gene": "ELF2 (E74 like ETS transcription factor 2)", "viability hit class": "no change", "caspase hit class": "no change", "viability robust z-score": 0.26, "caspase robust z-score": 0.31, "Outcome": "inactive"}

Not a retest: an excerpt of the list.
{"gene": "SLC12A9", "viability hit class": "no change", "caspase hit class": "no change", "viability robust z-score": -0.72, "caspase robust z-score": 2.51, "Outcome": "inactive"}
{"gene": "SNAPC1 (small nuclear RNA activating complex polypeptide 1)", "viability hit class": "no change", "caspase hit class": "no change", "viability robust z-score": -1.26, "caspase robust z-score": -0.42, "Outcome": "inactive"}
{"gene": "SIAH3 (siah E3 ubiquitin protein ligase family member 3)", "viability hit class": "no change", "caspase hit class": "no change", "viability robust z-score": -0.65, "caspase robust z-score": -0.76, "Outcome": "inactive"}
